Measurements taken from PubChem BioAssay AID540276 (National Center for Advancing Translational Sciences (NCATS), 2011).
Among all 300,000 compounds or so, about 5,400 (1.8%) were called active. The inconclusive results got no clear call from the source; some entries with a clear call stand among them for comparison. The call rests on the fitted dose curve; tested in HEK293 cells. Potencies of inconclusive entries are doubtful fits and often do not repeat.

Test: qHTS for inhibitors of binding or entry into cells for Marburg Virus
Conditions: Marburg virus pseudotyped entry inhibition, cell reporter; activity change, negative = inhibition: at 37.8 µM (top of the series) unless noted
On the % scale 0 is the no-effect control and ±100 the full control effect; potency means the concentration at half of the fitted maximal effect.

Row | SMILES | Potency | activity change, negative = inhibition
1 | Cc1ccnc(NC(=O)c2ccc(S(=O)(=O)N3CCCC3)cc2)c1 | inconclusive: 35.5 µM [activator, partial curve, poor fit] | –
2 | CCOC(=O)Nc1n[nH]c(NC(=O)OCC)c1[N+](=O)[O-] | – | inactive: -5.9% [at 46.1 µM]
3 | c1ccc2c(c1)[nH]c1nc(SCCN3CCOCC3)nnc12 | inconclusive: 10 µM [inhibitor, partial curve, poor fit] | –
4 | CCOC(=O)c1c(NC(=O)CS(=O)(=O)c2cn(CC)c3ccccc23)sc2c1CCCCC2 | – | inactive: -16.5%
5 | COc1ccc2nc3oc(C(=O)Nc4ccc(OC)c(OC)c4)cc3cc2c1 | inconclusive: 6.51 µM [inhibitor, partial curve, poor fit] | –
6 | COc1cccc(CC2(CO)CCN(S(=O)(=O)c3ccc(OC)cc3OC)CC2)c1 | inconclusive: 31.6 µM [inhibitor, single point] | –
7 | Cc1ccc(-c2cc(N)nc(-c3ccccc3)c2)cc1 | – | inactive: -24.4% [at 46.1 µM]
8 | C[C@H]1Oc2ccccc2C(=O)C1C(=O)c1ccccc1 (stereo partly specified) | inconclusive: 31.6 µM [activator, single point] | –
9 | COc1ccc(N=c2oc3ccc(OC)cc3cc2-c2nc3ccccc3[nH]2)cc1 | inconclusive: 25.9 µM [inhibitor, single point] | –
10 | CCC(NC(=O)NC1=NCCS1)(C(F)(F)F)C(F)(F)F | inactive | –
11 | N#C/C(=C\c1ccccc1[N+](=O)[O-])C(=O)NC1CCCCC1 | inconclusive: 8.91 µM [inhibitor, single point] | –
12 | COc1ccc(-c2nc3nc(C)cc(C)n3c2Nc2c(C)cccc2C)cc1 | inconclusive: 7.08 µM [inhibitor, partial curve, poor fit] | –
13 | CCOC(=O)C1=C(COC(=O)CCOc2cccc(C)c2)NC(=O)NC1C (stereo unspecified) | – | inactive: -2.61%
14 | CC(=O)c1cnc(Nc2cccc(C)c2)s1 | inconclusive: 15.8 µM [inhibitor, single point] | –
15 | CC1=C(C(=O)Nc2cccnc2)C(c2ccc(F)cc2)n2nc(-c3cccc(C)c3)nc2N1 (stereo unspecified) | inconclusive: 10 µM [inhibitor, partial curve, poor fit] | –
16 | Cc1cc(NC(=O)CSc2nc3ccsc3c(=O)n2NC(=O)c2ccccc2)no1 | inconclusive: 5.17 µM [activator, full curve, poor fit] | –
17 | O=C1c2ccccc2C(=O)c2cc(NC(=O)C3CC3)ccc21 | inconclusive: 16.4 µM [activator, single point] | –
18 | Cc1cc(NC(=O)C2CCN(S(=O)(=O)c3c(C)noc3C)CC2)ccc1Br | inactive | –
19 | O=[N+]([O-])c1ccc2c(c1)Cc1cc(F)ccc1-2 | – | inactive: 1.76% [at 46.1 µM]
20 | O=C(CN1CCSC1=NCc1ccccc1)c1ccc(Cl)c(Cl)c1 | inconclusive: 12.6 µM [inhibitor, single point] | –
21 | COC(=O)C1=CN(c2ccc(OC)cc2)C=C(C(=O)OC)C1c1ccc([N+](=O)[O-])cc1 | inconclusive: 12.6 µM [inhibitor, partial curve, poor fit] | –
22 | O=C(NCCCN1CCCC1=O)c1ccccc1OCc1ccc(Cl)cc1Cl | inconclusive: 1.12 µM [inhibitor, single point] | –
23 | COc1ccc(/C(C)=N/NC(=O)C2C3CCCCC32)c(OC)c1 (stereo unspecified) | – | inactive: 11.5%

Row | SMILES | Potency | activity change, negative = inhibition
24 | O=S(=O)(c1cccc(COc2ccc(Cl)cc2Cl)c1)N1CCOCC1 | inconclusive: 8.91 µM [inhibitor, partial curve, poor fit] | –
25 | CNC(=S)NNc1nc(C)cc(C)n1 | – | inactive: 26.2% [at 46.1 µM]
26 | CCCS(=O)(=O)N1CCc2ccc(NC(=O)C3CCCO3)cc2C1 (stereo unspecified) | inconclusive: 0.708 µM [activator, single point] | –
27 | O=C(CCl)Nc1ccc(Sc2ccc(NC(=O)CCl)cc2)cc1 | inconclusive: 1 µM [inhibitor, full curve, poor fit] | –
28 | CC1CCC(C(C)C)C(OC(=O)COC(=O)c2cccn2C)C1 (stereo unspecified) | – | inactive: -28.6% [at 46.1 µM]
29 | CCCN(CCC)Cc1cc2ccccc2c2c1COC2 | inconclusive: 0.199 µM [inhibitor, full curve, poor fit] | –
30 | O=S(=O)(c1ccc2ccccc2c1)N1CCCCCC1 | inconclusive: 1.58 µM [activator, partial curve, poor fit] | –
31 | O=C(COc1ccccc1F)Nc1ccc2nc(SCC(=O)N3CCc4ccccc43)sc2c1 | – | inactive: 6.72% [at 46.1 µM]
32 | O=C(N/N=C/c1ccc(Br)o1)c1ccc2c(c1)OCCO2 | inconclusive: 0.708 µM [activator, partial curve] | –
33 | CC(C)CN(CC(C)C)S(=O)(=O)N1CCC(C(=O)NCCc2ccc(Cl)cc2)CC1 | inconclusive: 32.6 µM [inhibitor, single point] | –
34 | c1ccc(CN(Cc2ccccc2)c2ncnc3c2nnn3Cc2ccccc2)cc1 | inconclusive: 3.55 µM [inhibitor, single point] | –
35 | Cc1nc2cc(NC(=O)N3c4ccccc4CC3C)ccc2n1C (stereo unspecified) | inconclusive: 16.4 µM [inhibitor, single point] | –
36 | COc1cc(/C=N/NC(=O)c2nonc2C)ccc1O | – | inactive: 2.5% [at 46.1 µM]
37 | Nc1nnc(SCC(=O)Nc2sc3c(c2C(=O)c2ccccc2)CCCC3)s1 | inconclusive: 35.5 µM [inhibitor, single point] | –
38 | Cn1cccc1C1Nc2ccccc2NC2=C1C(=O)CC(C)(C)C2 (stereo unspecified) | – | inactive: -0.351%
39 | COc1cccc(/C=C2/NC(=O)N(CC(=O)Nc3ccc(C)cc3)C2=O)c1OCc1cccc(C(=O)O)c1 | – | inactive: 12.1% [at 46.1 µM]
40 | CC(C)c1ccccc1NC(=O)c1cnccn1 | – | inactive: 20.4%
41 | COc1cccc(-c2ccc(C#N)c(SCC(=O)NCCc3ccc(Cl)cc3)n2)c1 | inconclusive: 1.41 µM [inhibitor, full curve, poor fit] | –
42 | c1ccc(C2NCCc3c2[nH]c2ccccc32)cc1 (stereo unspecified) | – | inactive: 22.5% [at 14.2 µM]
43 | Cc1noc(C)c1COC(=O)c1ccccc1Oc1ccccc1 | inconclusive: 35.5 µM [inhibitor, single point] | –
44 | COC(=O)c1cc(Nc2nc3ccccc3nc2NS(=O)(=O)c2ccc(C)cc2)ccc1Cl | inconclusive: 7.08 µM [activator, partial curve] | –
45 | Cn1cccc1CNC(=O)Nc1ccc(Cl)cc1 | – | inactive: -7.92%
46 | Cc1cc(C)nc(N/N=C2/CCCC/C2=C\c2ccccc2)n1 | inconclusive: 2.24 µM [inhibitor, full curve, poor fit] | –

Some of the entries so far, as tab-separated lines:
Row	SMILES	Potency	activity change, negative = inhibition
10	CCC(NC(=O)NC1=NCCS1)(C(F)(F)F)C(F)(F)F	inactive	–
11	N#C/C(=C\c1ccccc1[N+](=O)[O-])C(=O)NC1CCCCC1	inconclusive: 8.91 µM [inhibitor, single point]	–
